Literature values as cited in PMC8071183 (International Journal of Molecular Sciences, 2021).

Test system: GIRK channels
Details: read-out: IC50 of direct GIRK channel block; cited from earlier work

O=C(CCCN1CCC(O)(c2ccc(Cl)cc2)CC1)c1ccc(F)cc1 [haloperidol]
IC50: 41 µM
